Results are given in words; binding and its absence hold for the method and conditions named. Binding seen in cells or lysates may run through a third protein. A result given as binding can be weak or reduced; the word gives no strength. Where a sequence is shown, tags or fusion partners need not be part of it.
Target: T1, GST-Tea4 (S. pombe) (UniProt O60132)
T1 sequence: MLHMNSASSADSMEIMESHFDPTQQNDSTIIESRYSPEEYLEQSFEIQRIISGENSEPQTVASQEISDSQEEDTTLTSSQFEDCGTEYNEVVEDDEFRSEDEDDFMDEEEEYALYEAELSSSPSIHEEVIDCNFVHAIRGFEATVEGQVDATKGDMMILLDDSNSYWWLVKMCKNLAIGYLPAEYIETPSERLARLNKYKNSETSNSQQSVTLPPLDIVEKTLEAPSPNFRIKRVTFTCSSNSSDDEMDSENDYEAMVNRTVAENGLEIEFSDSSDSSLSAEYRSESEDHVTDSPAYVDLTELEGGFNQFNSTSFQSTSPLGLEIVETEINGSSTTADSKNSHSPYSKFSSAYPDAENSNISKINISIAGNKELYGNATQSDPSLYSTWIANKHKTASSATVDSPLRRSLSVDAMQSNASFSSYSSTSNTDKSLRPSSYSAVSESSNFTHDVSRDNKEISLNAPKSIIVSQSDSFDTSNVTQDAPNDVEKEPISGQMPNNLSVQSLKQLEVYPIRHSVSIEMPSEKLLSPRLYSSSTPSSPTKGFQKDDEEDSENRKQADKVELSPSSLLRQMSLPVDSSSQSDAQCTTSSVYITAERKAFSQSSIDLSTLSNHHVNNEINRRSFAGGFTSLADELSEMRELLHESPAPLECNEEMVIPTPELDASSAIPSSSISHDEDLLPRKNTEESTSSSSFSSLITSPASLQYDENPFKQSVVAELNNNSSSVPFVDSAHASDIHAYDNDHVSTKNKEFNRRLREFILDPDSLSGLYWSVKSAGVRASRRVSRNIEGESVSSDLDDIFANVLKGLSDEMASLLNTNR
Test: pull-down; 2 to 10 μg GST-tagged protein purified from E. coli and coupled to GS beads, incubated 2 h with S. pombe cell extracts (2 to 3 mg total protein; 50 mM Tris-HCl pH 7.5, 20 mM NaCl, 0.5% NP-40, 10% glycerol); blotted with anti-HA or anti-GFP; GS beads alone as control; only the target purified

Amino acid sequences for entries named in this document (tags omitted). A change or cut given only in a name is not applied to a line headed by its entry.
UniProt Q9Y7U6: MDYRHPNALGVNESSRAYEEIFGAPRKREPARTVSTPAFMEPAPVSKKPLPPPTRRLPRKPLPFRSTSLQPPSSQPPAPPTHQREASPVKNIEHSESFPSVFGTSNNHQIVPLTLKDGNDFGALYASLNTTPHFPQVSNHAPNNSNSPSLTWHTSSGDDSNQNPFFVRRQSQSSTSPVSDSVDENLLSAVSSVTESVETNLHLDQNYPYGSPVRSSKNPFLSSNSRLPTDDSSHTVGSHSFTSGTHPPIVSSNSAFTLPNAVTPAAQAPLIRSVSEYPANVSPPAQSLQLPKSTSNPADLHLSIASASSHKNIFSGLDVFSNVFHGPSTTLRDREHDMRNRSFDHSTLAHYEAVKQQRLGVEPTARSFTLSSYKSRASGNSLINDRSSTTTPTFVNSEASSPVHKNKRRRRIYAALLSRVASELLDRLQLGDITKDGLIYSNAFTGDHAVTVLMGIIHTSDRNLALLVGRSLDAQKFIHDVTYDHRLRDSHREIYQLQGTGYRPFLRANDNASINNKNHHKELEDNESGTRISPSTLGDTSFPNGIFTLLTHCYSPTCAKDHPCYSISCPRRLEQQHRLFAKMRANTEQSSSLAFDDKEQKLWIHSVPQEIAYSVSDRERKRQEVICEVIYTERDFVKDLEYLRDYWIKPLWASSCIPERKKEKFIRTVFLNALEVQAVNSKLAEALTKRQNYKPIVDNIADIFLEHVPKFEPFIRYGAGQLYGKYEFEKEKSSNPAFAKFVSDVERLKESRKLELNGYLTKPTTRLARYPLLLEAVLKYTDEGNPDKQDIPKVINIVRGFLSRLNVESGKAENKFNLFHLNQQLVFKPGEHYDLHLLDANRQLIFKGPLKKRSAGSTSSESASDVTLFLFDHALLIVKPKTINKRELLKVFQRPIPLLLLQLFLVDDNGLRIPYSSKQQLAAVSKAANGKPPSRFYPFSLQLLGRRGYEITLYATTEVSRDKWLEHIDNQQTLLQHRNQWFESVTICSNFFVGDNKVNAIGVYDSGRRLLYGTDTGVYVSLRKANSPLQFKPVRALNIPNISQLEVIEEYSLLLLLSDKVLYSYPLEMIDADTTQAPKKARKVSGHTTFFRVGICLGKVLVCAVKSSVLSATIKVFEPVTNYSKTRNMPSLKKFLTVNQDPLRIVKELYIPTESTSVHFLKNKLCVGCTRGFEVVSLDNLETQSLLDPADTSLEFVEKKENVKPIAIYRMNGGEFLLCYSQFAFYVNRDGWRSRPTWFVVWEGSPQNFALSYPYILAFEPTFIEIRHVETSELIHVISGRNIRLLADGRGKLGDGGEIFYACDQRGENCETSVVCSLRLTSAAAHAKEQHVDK

Substance: Rgf1ΔPTTR-HA (from UniProt Q9Y7U6)
- binding: binds
